Assay results published in article PMC3839920.
These are yes or no findings as the source states them, for the method shown. In cells and extracts the contact can be indirect. Some entries that bind do so weakly or less than the wild type.

Protein sequences, listed by entry. Tags and fused reporters are not part of them.
UniProt P06748: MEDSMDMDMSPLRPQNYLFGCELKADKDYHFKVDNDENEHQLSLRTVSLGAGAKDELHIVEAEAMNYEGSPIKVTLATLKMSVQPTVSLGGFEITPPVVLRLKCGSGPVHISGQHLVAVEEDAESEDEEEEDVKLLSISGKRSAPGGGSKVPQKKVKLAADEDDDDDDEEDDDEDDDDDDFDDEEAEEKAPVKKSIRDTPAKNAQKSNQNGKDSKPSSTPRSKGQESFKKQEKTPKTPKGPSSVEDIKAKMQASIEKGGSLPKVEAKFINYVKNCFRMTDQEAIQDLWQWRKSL
UniProt Q61937: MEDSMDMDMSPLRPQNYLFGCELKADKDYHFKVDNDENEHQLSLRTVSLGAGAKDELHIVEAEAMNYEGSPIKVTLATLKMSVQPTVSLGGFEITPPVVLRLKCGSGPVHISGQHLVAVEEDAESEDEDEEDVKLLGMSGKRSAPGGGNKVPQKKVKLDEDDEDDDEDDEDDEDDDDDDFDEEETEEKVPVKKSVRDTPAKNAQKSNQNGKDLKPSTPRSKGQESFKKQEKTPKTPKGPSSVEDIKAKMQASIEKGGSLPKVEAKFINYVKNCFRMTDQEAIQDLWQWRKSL

T1: RABL6A (RAB-like 6 isoform A), endogenous mouse (mouse (endogenous in p53-/- MEFs)) (UniProt Q5U3K5)
T1 sequence: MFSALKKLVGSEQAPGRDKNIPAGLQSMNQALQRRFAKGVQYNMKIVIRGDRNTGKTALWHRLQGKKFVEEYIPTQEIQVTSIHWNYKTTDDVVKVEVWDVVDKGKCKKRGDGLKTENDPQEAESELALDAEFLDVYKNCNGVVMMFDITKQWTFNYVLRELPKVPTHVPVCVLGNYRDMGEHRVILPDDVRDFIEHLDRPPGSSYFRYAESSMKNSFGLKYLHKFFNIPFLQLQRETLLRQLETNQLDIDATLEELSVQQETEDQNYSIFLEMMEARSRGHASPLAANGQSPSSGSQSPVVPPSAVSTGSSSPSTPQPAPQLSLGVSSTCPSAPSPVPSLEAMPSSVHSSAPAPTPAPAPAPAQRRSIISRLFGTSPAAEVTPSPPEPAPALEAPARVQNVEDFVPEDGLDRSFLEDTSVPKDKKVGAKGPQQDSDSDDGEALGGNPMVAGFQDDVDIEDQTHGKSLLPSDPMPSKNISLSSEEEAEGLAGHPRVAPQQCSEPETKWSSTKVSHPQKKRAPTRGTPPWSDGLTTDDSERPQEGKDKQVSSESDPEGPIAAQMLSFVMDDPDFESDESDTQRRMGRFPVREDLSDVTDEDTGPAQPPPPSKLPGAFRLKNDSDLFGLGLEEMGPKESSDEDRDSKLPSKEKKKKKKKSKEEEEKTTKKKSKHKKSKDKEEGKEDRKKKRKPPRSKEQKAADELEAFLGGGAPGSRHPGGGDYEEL


Assays:
[1] = molecular target: T1, RABL6A (RAB-like 6 isoform A), endogenous mouse (mouse (endogenous in p53-/- MEFs)); experiment: co-IP; endogenous proteins; nuclear and cytosolic fractions of p53-/- MEFs; IP with RABL6 antibodies versus control IgG, western blot for NPM and ARF
[2] = molecular target: GST-NPM recombinant protein (UniProt P06748); experiment: pull-down; 35S-labeled in vitro translated RABL6A on GST-NPM recombinant protein versus GST control; autoradiography; only the target purified

binding [1] | binding [2] | Molecule
binds |  | nucleophosmin/B23 (NPM), endogenous mouse (from UniProt Q61937 1-292)
 | binds | in vitro translated RABL6A (protein, UniProt Q3YEC7 1-729, 35S-labeled) MFSALKKLVGSDQAPGRDKNIPAGLQSMNQALQRRFAKGVQYNMKIVIRGDRNTGKTALWHRLQGRPFVEEYIPTQEIQVTSIHWSYKTTDDIVKVEVWDVVDKGKCKKRGDGLKMENDPQEAESEMALDAEFLDVYKNCNGVVMMFDITKQWTFNYILRELPKVPTHVPVCVLGNYRDMGEHRVILPDDVRDFIDNLDRPPGSSYFRYAESSMKNSFGLKYLHKFFNIPFLQLQRETLLRQLETNQLDMDATLEELSVQQETEDQNYGIFLEMMEARSRGHASPLAANGQSPSPGSQSPVVPAGAVSTGSSSPGTPQPAPQLPLNAAPPSSVPPVPPSEALPPPACPSAPAPRRSIISRLFGTSPATEAAPPPPEPVPAAEGPATVQSVEDFVPDDRLDRSFLEDTTPARDEKKVGAKAAQQDSDSDGEALGGNPMVAGFQDDVDLEDQPRGSPPLPAGPVPSQDITLSSEEEAEVAAPTKGPAPAPQQCSEPETKWSSIPASKPRRGTAPTRTAAPPWPGGVSVRTGPEKRSSTRPPAEMEPGKGEQASSSESDPEGPIAAQMLSFVMDDPDFESEGSDTQRRADDFPVRDDPSDVTDEDEGPAEPPPPPKLPLPAFRLKNDSDLFGLGLEEAGPKESSEEGKEGKTPSKEKKKKKKKGKEEEEKAAKKKSKHKKSKDKEEGKEERRRRQQRPPRSRERTAADELEAFLGGGAPGGRHPGGGDYEEL
binds |  | ARF (Alternative Reading Frame protein), endogenous mouse (protein, UniProt Q64364 1-169) MGRRFLVTVRIQRAGRPLQERVFLVKFVRSRRPRTASCALAFVNMLLRLERILRRGPHRNPGPGDDDGQRSRSSSSAQLRCRFELRGPHYLLPPGARRSAGRLPGHAGGAARVRGSAGCARCLGSPAARLGPRAGTSRHRAIFAFRWVLFVFRWVVFVYRWERRPDRRA
